# Paper PMC10163288
# The list shows a part of the results.
# B1: il10ra_site1_normal_mot_HHH_b1_04275_000000150_0001_22_39_H_._HHH_b1_06183_af2_0001_0000700027_0000002_0 (protein)
# chain: SSSSSDQEVSRLLLRVFRLLLRGDEEEAEKLLEEAKRLAEELNDPRLEEAVRVVEEAFESSSSSS
# B2: il10ra_site1_normal_mot_HHH_b2_04679_000000194_0001_21_38_H_._HHH_b2_07864_af2_0001_0000100014_0000001_1 (protein)
# chain: SSSSTDEHQRLYRLLRELIELVSEGDEEEFEELLEEVKRLAEELNNFIIRFVVRLLERQLTSSSS
# B3: il10ra_site1_normal_mot_HHH_b1_03094_000000294_0001_1_20_H_._HHH_b2_01952_af2_0001_0000100005_0000001_0 (protein)
# chain: SSSSSEEEEKALELVLEALELALRGDPEEAERVLEEALEIAQELGNERLARIIEDLLQALESSSS
# B4: il10ra_site1_sap_22_mot_HHH_b2_03891_000000295_0001_1_20_H_._HHH_b1_07341_af2_0001_0000400017_0000001_0_0001_af2pred_0001 (protein)
# chain: SSSSSEEERVEELLEEAEQIPDPHEVSQLLAKALELAARAGNEELLRRILEIAIEILEEDSSSSS
# B5: il10ra_site1_sap_18_mot_HHH_b2_00406_af2_000000109_0001_1_19_H_._HHH_b1_08169_0001_0000200009_0000001_0_0001_af2pred_0001 (protein)
# chain: SSSSSRKEVLRLFIEAIQLLREGNPEEAEKVAEEVLELVEEIGDEALERAIRALLEMIRGSSSSS
# B6: il10ra_site1_normal_mot_HHH_b1_05860_000000142_0001_1_19_H_._HHH_b2_02987_af2_0001_0000100006_0000001_0_af2pred_dldesign_0_af2pred (protein)
# chain: SSSSNPNERVVALLRRAAELLAEGRPEEARELLEEARRLAEEANDPIALHAVDYLLRQVESSSSS
# B7: il10ra_site1_normal_mot_HHH_b1_05357_000000034_0001_23_39_H_._HHH_b2_00942_af2_0001_0000300008_0000001_0 (protein)
# chain: SSSSSELEEEVKELLEEAKRIEDLARASHVLIRAYALAVHNKDPELEELVREAAIEVAERRSSSS
# B8: il10ra_site1_sap_19_mot_39a7b8d0c4c3fc04bafbda6ce6101d3a_0001_1_af2_000000014_0001_34_48_H_._HHH_b1_02094_0001_0000300034_0000001_0_0001 (protein)
# chain: SSSSSDVAEELYELSREAMELLRNGNPEEARRVIEEAIELAEENNNMVFLVVLRFVLEQINSSSS
# B9: il10ra_site1_sap_26_mot_HHH_b1_03859_af2_000000004_0001_44_57_H_._HHH_b2_01614_af2_0001_0000800031_0000001_0_0001 (protein)
# chain: SSSSDELEEYVKIAARFAENAAKSGSPEIARRILEVMLEVLKRNNNPELFEEVEELLEELSSSSS
# B10: il10ra_site1_normal_mot_HHH_b1_08176_000000188_0001_1_20_H_._HHH_b1_00383_af2_0001_0000700029_0000001_0 (protein)
# chain: SSSSDEENQEALELSIHAFRLALRGNPEEAEELLRRALELAEEGGNERLARVIRELLQAIKSSSS
# B11: il10ra_site1_sap_21_mot_HHH_b2_08172_af2_000000094_0001_41_56_H_._d0d27a57e4302dd0dd5ebafbde421892_0001_1_0001_0000100001_0000001_0_0001_af2pred_dldesign_0_af2p … (protein)
# chain: SSSSSVEELAEQALRAARLALEAGDLEGARKALAIARKLAAQSPNAELKARIAALEAEIAASSSS
# B12: il10ra_site1_normal_mot_HHH_b2_02736_000000092_0001_22_38_H_._HHH_b1_06879_af2_0001_0000900065_0000002_0 (protein)
# chain: SSSSSEEAQRVYELLRRAIELHAEGDEEEAEKVLEEAEELAEKLNNEVFLFAIEFALRLLSSSSS
# B13: il10ra_site1_normal_mot_05ca327611f5605f0dd8494b449afcbf_0001_1_000000248_0001_35_51_H_._HHH_b2_04665_0001_0000500015_0000001_0_af2pred_0001 (protein)
# chain: SSSSSEESERVLELIREALHIEDPEEAREVLEEARELAEELNNPVLRIAIEFILRDIEAGSSSSS
# B14: il10ra_site1_normal_mot_HHH_b2_06979_000000158_0001_42_57_H_._HHH_b1_00897_af2_0001_0000200012_0000003_0_af2pred_dldesign_0_af2pred (protein)
# chain: SSSSSQADVQRIVALLREASEIEDPEKRRAVVEEAVALAEKLGNEILLRDARYLLADVEALSSSS
# B15: il10ra_site1_normal_mot_HHH_b2_04275_000000272_0001_20_36_H_._HHH_b1_02375_af2_0001_0000400029_0000001_0 (protein)
# chain: SSSSSEELQRLYELLREASELQHEGNPEEAEKVLEEAEELARELGNEVLLAVIRFLQRLASSSSS
# B16: il10ra_site1_sap_26_mot_HHH_b2_06857_af2_000000179_0001_42_54_H_._HHH_b1_00069_af2_0001_0000100009_0000001_0_0001_af2pred_0001 (protein)
# chain: SSSSSEEREEIYRLIREALELLANGNPEEAEEVLEEAERLAKEANSPLFEFALEAARRKVKSSSS
# B17: il10ra_site1_sap_24_mot_HHH_b2_00066_000000124_0001_1_17_H_._HHH_b2_07485_0001_0000400008_0000001_0_0001 (protein)
# chain: DVVEEVIEKLRKSGDPRLNQLAVSLWLMLHSPDPRFREAAEEVAELLLRGEISPEEAREILVELA
# B18: il10ra_site1_normal_mot_HHH_b1_06057_000000129_0001_22_38_H_._HHH_b1_07369_0001_0000100008_0000001_0 (protein)
# chain: SSSSTLEESVKFALRVAEQLLELGDPERARELLEKLLKLLEEAGDEELIERVEELLREVEESSSS
# B19: il10ra_site1_sap_26_mot_d30c92881be5d2f229e465dffc40e224_0001_af2_000000108_0001_34_47_H_._aff62e40800cfbf30c5099bd910ef069_0001_0001_0000300014_0000001_0_0001 (protein)
# chain: SSSSSDEDEREVEELIEELQRIEDTQEFARVYREAAELAWRHQDHEALQRVIRAAAEWIQSSSSS
# Biological target: il10ra, Q13651
# Test: yeast display titration
row,Binder,apparent Kd
1,B1,inactive: no binding seen
2,B2,inactive: no binding seen
3,B3,inactive: no binding seen
4,B4,inactive: no binding seen
5,B5,inactive: no binding seen
6,B6,inactive: no binding seen
7,B7,inactive: no binding seen
8,B8,inactive: no binding seen
9,B9,inactive: no binding seen
10,B10,inactive: no binding seen
11,B11,inactive: no binding seen
12,B12,inactive: no binding seen
13,B13,inactive: no binding seen
14,B14,inactive: no binding seen
15,B15,inactive: no binding seen
16,B16,inactive: no binding seen
17,B17,inactive: no binding seen
18,B18,inactive: no binding seen
19,B19,inactive: no binding seen

# As a short view, part of the list above:
row,Binder,apparent Kd
7,B7,inactive: no binding seen
8,B8,inactive: no binding seen
